US20260266833A1 (AXOIYA, published 2026)
Non-standard residues stand in square brackets, D forms with d. No end group written: not given here. *: point of attachment. Biotin = O=C1N[C@H]2[C@H](CS[C@H]2CCCCC(=O)*)N1; Arg(Me) = CNC(=N)NCCC[C@H](N)C(=O)O; Ahx = NCCCCCC(=O)O

T1: H3K27me1 (Kme1 at peptide residue 10 (histone H3 K27); N-terminal biotin and aminohexanoic acid linker)
T1 construct: also called H3K27Me1 peptide
T1 peptide: KQLATKAARKSAPATGGVK

T2: H3K27me2 (Kme2 at peptide residue 10 (histone H3 K27); N-terminal biotin and aminohexanoic acid linker)
T2 construct: also called H3K27Me2 peptide
T2 peptide: KQLATKAARKSAPATGGVK

T3: H3R17me1
T3 construct: also called H3R17me1 peptide
T3 peptide: {Biotin-Ahx}-KSTGGKAP[Arg(Me)]KQLATKAA

T4: H3K14
T4 construct: also called H3K14 peptide (non-modified)
T4 peptide: {Biotin-Ahx}-TARKSTGGKAPRKQLAT

T5: H3K27 peptide (non-methylated) (also: N-terminal biotin + Ahx, or FITC at N-terminus)
T5 construct: also called unmethylated H3K27 peptide
T5 peptide: KQLATKAARKSAPATGGVK

T6: H3K27me3 peptide (Kme3 (trimethyl-lysine) at the 10th residue (KQLATKAARKme3SAPATGGVK); N-terminus biotin + aminohexanoic acid linker, or FITC at the N-terminus for fluorescence polarization)
T6 construct: Synthetic peptide (GenScript)
T6 peptide: KQLATKAARKSAPATGGVK

T7: H3K14Ac
T7 construct: also called H3K14Ac peptide
T7 peptide: {Biotin-Ahx}-TARKSTGGK(Ac)APRKQLAT

T8: H3R17
T8 construct: also called H3R17 peptide (non-modified)
T8 peptide: {Biotin-Ahx}-KSTGGKAPRKQLATKAA


Assays:
Assay in all cases: luciferase-fusion assay on immobilized peptide
H4K20me3 = target: T9, H4K20me3 (Kme3 at peptide residue 8 (histone H4 K20); N-terminal biotin and aminohexanoic acid linker)
T9 construct: also called H4K20Me3 peptide
Method: (§1) For luciferase-based assays, 384-well white plates (PerkinElmer) were coated for 16 h at 4° C. with 4 μg/ml streptavidin (New England Biolabs, N7021S) in TBS pH 8.5 (50 mM Tris-HCl pH 8.5, 150 mM NaCl). Each well was blocked with 60 μl/well of TBS pH 8.5 containing 0.5% BSA (TB buffer) and incubated at 25° C. for 1 h. Plates were washed four times with 90 μl/well of PBS pH 7.4, 0.05% Tween-20 (PT buffer) and incubated with 25 μl/well of biotinylated histone peptides at 5 μg/ml in TB buffer pH 8.5 for 30 min at 25° C. Plates were washed and incubated with Cbx chromodomain-luciferase fusions diluted to 0.1 nM for Cbx. VD or 100 nM for Cbx.wt in TB buffer, 0.05% Tween-20, 1 mM DTT, 5% glycerol (TBT buffer). Plates were incubated for 1 h at 25° C. with gentle shaking, washed six times and luminescence intensity was measured with a Biotek Synergy 5 plate reader (Biotek) using the ONE-Glo™ EX luciferase assay system reagent (Promega). Following background subtraction of the luminescence signal derived from wells coated with streptavidin, the luminescence intensity was normalized to wells with immobilized H3K9me3 peptide.
(§2) To enhance detection sensitivity, each chromodomain was expressed as a fusion to the N-terminus of an engineered firefly luciferase and binding was measured by luminescence intensity.

H3K27me1 = target: T1, H3K27me1
Method: as §1, §2

H3K27me2 = target: T2, H3K27me2
Method: as §1, §2

H3R17me1 = target: T3, H3R17me1
Method: as §1, §2

H4K20 peptide = H4K20 peptide (N-terminus biotin + aminohexanoic acid linker)
Method: as §1, §2

H3K14 = target: T4, H3K14
Method: as §1, §2

[1] = target: T5, H3K27 peptide (non-methylated)
Method: as §1, §2

H3K27me3 peptide = target: T6, H3K27me3 peptide
Method: as §1, §2

H3K14Ac = target: T7, H3K14Ac
Method: as §1, §2

H3R17 = target: T8, H3R17
Method: as §1, §2

binding result (H4K20me3) | binding result (H3K27me1) | binding result (H3K27me2) | binding result (H3R17me1) | binding result (H4K20 peptide) | binding result (H3K14) | binding result [1] | binding result (H3K27me3 peptide) | binding result (H3K14Ac) | binding result (H3R17) | Binder
no binding (tested: 100 nM) | no binding (tested: 100 nM) | no binding (tested: 100 nM) | no binding (tested: 100 nM) | no binding (tested: 100 nM) | no binding (tested: 100 nM) | no binding (tested: 100 nM) | no binding (tested: 100 nM) | no binding (tested: 100 nM) | no binding (tested: 100 nM) | Cbx3.wt chromodomain-luciferase fusion (other, not shown: engineered YY5 firefly luciferase from Photinus pyralis fused to the C-terminus) MSYYHHHHHHGSDYKDDDDKSSGENLYFQGSGGSEEAEPEEFVVEKVLDRRVVNGKVEYFLKWKGFTDADNTWEPEENLDCPELIEAFLNSQK
no binding (tested: 0.1 nM) | no binding (tested: 0.1 nM) | no binding (tested: 0.1 nM) | no binding (tested: 0.1 nM) | no binding (tested: 0.1 nM) | no binding (tested: 0.1 nM) | no binding (tested: 0.1 nM) | no binding (tested: 0.1 nM) | no binding (tested: 0.1 nM) | no binding (tested: 0.1 nM) | Cbx5.VD chromodomain-luciferase fusion (designed binder, not shown: engineered YY5 firefly luciferase from Photinus pyralis fused to the C-terminus) MSYYHHHHHHGSDYKDDDDKSSGENLYFQGSGGSEDEYVVEKVLDRRVVKGQVEYLLKWEGFSEEHNTWEPEKNLDCPELISEFMKKYKKMKEGEN

Further lines, the binder ahead of its results:

Binder | binding result (H4K20me3) | binding result (H3K27me1) | binding result (H3K27me2) | binding result (H3R17me1) | binding result (H4K20 peptide) | binding result (H3K14) | binding result [1] | binding result (H3K27me3 peptide) | binding result (H3K14Ac) | binding result (H3R17)
Cbx1.wt chromodomain-luciferase fusion (other, not shown: engineered YY5 firefly luciferase from Photinus pyralis fused to the C-terminus) MSYYHHHHHHGSDYKDDDDKSSGENLYFQGSGGSEEEEYVVEKVLDRRVVKGKVEYLLKWKGFSDEDNTWEPEENLDCPDLIAEFLQSQKTAHETDK | no binding (tested: 100 nM) | no binding (tested: 100 nM) | no binding (tested: 100 nM) | no binding (tested: 100 nM) | no binding (tested: 100 nM) | no binding (tested: 100 nM) | no binding (tested: 100 nM) | no binding (tested: 100 nM) | no binding (tested: 100 nM) | no binding (tested: 100 nM)
Cbx1.VD chromodomain-luciferase fusion (designed binder, not shown: engineered YY5 firefly luciferase from Photinus pyralis fused to the C-terminus) MSYYHHHHHHGSDYKDDDDKSSGENLYFQGSGGSEEDEYVVEKVLDRRVVKGKVEYLLKWEGFSDEDNTWEPEENLDCPDLIAEFLQSQKTAHETDK | no binding (tested: 0.1 nM) | no binding (tested: 0.1 nM) | no binding (tested: 0.1 nM) | no binding (tested: 0.1 nM) | no binding (tested: 0.1 nM) | no binding (tested: 0.1 nM) | no binding (tested: 0.1 nM) | no binding (tested: 0.1 nM) | no binding (tested: 0.1 nM) | no binding (tested: 0.1 nM)
Cbx5.wt chromodomain-luciferase fusion (other, not shown: engineered YY5 firefly luciferase from Photinus pyralis fused to the C-terminus) MSYYHHHHHHGSDYKDDDDKSSGENLYFQGSGGSEEEYVVEKVLDRRVVKGQVEYLLKWKGFSEEHNTWEPEKNLDCPELISEFMKKYKKMKEGEN | no binding (tested: 100 nM) | no binding (tested: 100 nM) | no binding (tested: 100 nM) | no binding (tested: 100 nM) | no binding (tested: 100 nM) | no binding (tested: 100 nM) | no binding (tested: 100 nM) | no binding (tested: 100 nM) | no binding (tested: 100 nM) | no binding (tested: 100 nM)
